Results reported in patent publication US20030139438A1, “Diagnosis of the parkinsonian condition” (priority 2001, published 2003).

Tested on: effects of met-enkephalin
Assay: Naloxone diagnostic test in subject with pre-symptomatic Parkinson's disease (UPDRS Part III)
Assay type: in vivo, human
Conditions: single subcutaneous injection, 10-100 mg

C=CCN1CC[C@]23c4c5ccc(O)c4O[C@H]2C(=O)CC[C@@]3(O)[C@H]1C5 [naloxone]
time until symptoms subside after injection: ≤ 20 min
